Data as given in US4356322A, “Phenoxyalkanolamine derivatives” (Veb Arzneimittelwerk Dresden, priority 1977, dated 1982).
For at least one compound, name, drawing or mass did not settle the structure.

Amino acid sequences for entries named in this document (tags omitted). Residues count along the entry.
UniProt H0W3H1, 1-470: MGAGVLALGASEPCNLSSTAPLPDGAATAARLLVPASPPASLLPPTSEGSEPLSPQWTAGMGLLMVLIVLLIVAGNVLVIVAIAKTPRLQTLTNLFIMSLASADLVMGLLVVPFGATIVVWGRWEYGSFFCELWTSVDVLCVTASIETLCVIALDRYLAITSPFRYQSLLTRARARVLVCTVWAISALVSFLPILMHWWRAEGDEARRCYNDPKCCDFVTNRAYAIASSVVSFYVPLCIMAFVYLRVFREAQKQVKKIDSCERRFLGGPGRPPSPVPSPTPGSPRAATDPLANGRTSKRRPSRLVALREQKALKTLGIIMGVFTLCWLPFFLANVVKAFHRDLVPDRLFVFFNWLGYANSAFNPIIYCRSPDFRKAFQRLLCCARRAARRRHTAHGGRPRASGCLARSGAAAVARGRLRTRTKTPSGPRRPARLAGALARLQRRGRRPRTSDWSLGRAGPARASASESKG

Assays:
circulation of dogs = assay: effects on the circulation of dogs under continual intravenous infusion; type: in vivo; settings: dog, 10,0 μg/kg/min, cumulative 200 μg/kg
Excerpt: Column 1: Infusion rate in μg/kg/min
Column 2: Cumulative dose in μg/kg
Rate of pressure increase in the left ventricle (dp/dt/max) in mm Hg·s^-1
ED30 =dosage for 30% increase in inotropy, in μg/kg
Max=maximum increase in percent in inotropy at dose μg/kg
Column 4: Cardiac frequency in n·min^-1
ED30 =dosage for 30% increase in frequency, in μg/kg
Max=maximum increase in percent in frequency at dose μg/kg
Column 5: Cardiac output ml·min^-1 ·kg^-1
Column 6: Diastolic blood pressure in mm Hg
Column 7: Number of animals used in the experiments
X=median values (initial value and after cumulative dose)
%=change in percent of initial value
In these experiments, the compounds were used in the form of hydrochlorides.

β-adrenergic receptors = target: T1, β-adrenergic receptors (Cavia porcellus, UniProt H0W3H1); assay: β-adrenergic blockade in isolated spontaneously beating atrium cordis, vs positively inotropic effect of isoprenaline; settings: isolated guinea pig atrium, vs 0.015 μg/ml isoprenaline; HCl salt; read-out: ventricle ED50 (β-adrenergic blockade)
T1 construct: isolated spontaneously beating atrium cordis of guinea pigs; from tissue; host or cells: guinea pig atrium (isolated, spontaneously beating)

**Q.** With `COc1cccc(C(=O)CCN[C@@H](C)[C@H](O)c2ccccc2)c1.Cl` [d-l-Oxyphedrine Hydrochloride, reference compound] as the compound, how does the “Diastolic blood pressure, median initial value - value after cumulative dose” value (circulation of dogs) read?
**A.** Its value is 106-93.

**Q.** And the IC50 (β-adrenergic receptors)?
**A.** Its IC50 is 1 µM.
